Source: PubChem BioAssay AID504764 (Drosophila RNAi Screening Center, 2011)

Screen: 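Knock-downs that raise or lower a Notch target reporter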 (primary screen)
Cells: Drosophila Kc167 cells
Reagents: long dsRNA against Drosophila genes
Timing: about 5 days (4 days dsRNA, then 24 h after transfection)
Treatment: transfection of constitutively active membrane-tethered Notch lacking the extracellular domain, read 24 h later
Detection: 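Light from a Notch-responsive E(spl)m3 luciferase reporter under active Notch, with control-promoter and no-Notch reporter wells to normalise; raw counts from paired wells a and b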
Scale: induced reporter light, run 1, well a and induced reporter light, run 1, well b: higher = more light from the Notch target reporter with active Notch; control promoter light, run 1, well a and control promoter light, run 1, well b: higher = more light from the viral control promoter (cell number, transfection, viability); uninduced reporter light, run 1, well a: higher = more light from the Notch target reporter without active Notch
Hit rule: 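Hit if the duplicate-averaged log2 ratio of induced to control-promoter light gives a plate-wise z beyond ±2, or induced to uninduced beyond ±1.8; weak-control or discordant-duplicate wells dropped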
Meaning of the calls: active = modifier hit (raised or lowered Notch signal); inactive = not a hit
In all, the deposit lists about 22,000 reagents; this is an unselected part of those with a known target gene and a result. Of all reagents, 403 (1.9%) got an active call. 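Unnormalised raw counts per well; ratio z-scores behind the hit calls and whether each hit raises or lowers signal are not deposited.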 A plus sign joins genes that one reagent is predicted to hit. Not stated in the record: the amount of reagent.

induced reporter light, run 1, well a	induced reporter light, run 1, well b	control promoter light, run 1, well a	control promoter light, run 1, well b	uninduced reporter light, run 1, well a	outcome	Gene	dsRNA
1.71e5	1.79e5	2.65e5	2.22e5	12045	inactive	CG4483	DRSC10426
1.33e5	1.33e5	1.27e5	1.60e5	9820	inactive	CG11037	DRSC11631
2.09e5	1.95e5	2.07e5	1.96e5	14335	inactive	BomBc3 (Bomanin Bicipital 3)	DRSC15873
1.33e5	1.11e5	84700	96955	8475	inactive	ast (asteroid)	DRSC00803
33115	30495	36150	38305	4880	inactive	CG15125	DRSC06547
1.70e5	1.27e5	1.53e5	1.12e5	10445	inactive	Nt5b (5' nucleotidase B)	DRSC19976
66500	55150	61355	67205	9310	inactive	Nt5b (5' nucleotidase B)	DRSC19977
74245	65725	68765	60205	9110	inactive	Nt5b (5' nucleotidase B)	DRSC19978
1.85e5	2.10e5	1.86e5	2.12e5	15978	inactive	Tina-1 (Troponin C-akin-1)	DRSC04317
1.15e5	82240	81020	73380	10180	inactive	CG12698	DRSC19485
1.80e5	1.63e5	1.77e5	1.53e5	10805	inactive	CG17199	DRSC15192
1.39e5	1.46e5	97155	76930	10040	inactive	CG11964	DRSC14447
1.20e5	1.36e5	1.90e5	1.43e5	6305	inactive	Ack (Activated Cdc42 kinase)	DRSC08135
93945	1.05e5	1.77e5	2.08e5	7530	inactive	CG17129	DRSC08508
74680	95360	87990	90335	5635	inactive	PolrMT (RNA polymerase mitochondrial)	DRSC00660
40905	40295	61760	57585	5315	inactive	amx (almondex)	DRSC18736
1.79e5	1.56e5	1.87e5	1.91e5	12955	inactive	CG5793	DRSC15874
2.10e5	1.93e5	2.19e5	2.19e5	13650	inactive	tinc (tincar)	DRSC14798
1.89e5	1.79e5	1.94e5	2.29e5	14560	inactive	tinc (tincar)	DRSC14799
58595	50640	50730	43495	6665	inactive	tinc (tincar)	DRSC16308
1.93e5	1.70e5	2.28e5	1.97e5	13940	inactive	tinc (tincar)	DRSC16309
3750	4910	4975	4495	1842	inactive	CG9471	DRSC16499
1.52e5	1.12e5	1.71e5	1.48e5	10900	inactive	CG14556	DRSC14899
12420	11010	13645	14310	645	inactive	mts (microtubule star)	DRSC03574
36240	48785	41550	51795	5740	inactive	cactin	DRSC20576
1.53e5	1.83e5	2.42e5	2.18e5	14320	inactive	CG6330	DRSC16022
54325	44640	40710	27855	2450	inactive	ND-B12 (NADH dehydrogenase (ubiquinone) B12 subunit)	DRSC04060
1.30e5	1.15e5	1.63e5	1.74e5	8275	inactive	CG11593	DRSC08206
98980	1.11e5	1.60e5	1.92e5	8180	inactive	CG3939	DRSC18498
1.52e5	1.71e5	2.19e5	2.27e5	13710	inactive	CG18766	DRSC15936
1.40e5	1.25e5	2.16e5	1.65e5	10880	inactive	CG15563	DRSC15101
75515	1.14e5	64835	85240	14625	inactive	SoYb	DRSC02901
2.05e5	1.87e5	3.13e5	2.57e5	11725	inactive	Cyp1 (Cyclophilin 1)	DRSC20234
1.60e5	1.25e5	1.62e5	1.89e5	13265	inactive	CG42507 + Trl	DRSC09325
2735	4480	4015	3315	2495	inactive	CG42507 + Trl	DRSC11308

2 entries from above in another layout.
{"Gene": "tinc (tincar)", "dsRNA": "DRSC14798", "induced reporter light, run 1, well a": 2.10e5, "induced reporter light, run 1, well b": 1.93e5, "control promoter light, run 1, well a": 2.19e5, "control promoter light, run 1, well b": 2.19e5, "uninduced reporter light, run 1, well a": 13650, "outcome": "inactive"}
{"Gene": "tinc (tincar)", "dsRNA": "DRSC14799", "induced reporter light, run 1, well a": 1.89e5, "induced reporter light, run 1, well b": 1.79e5, "control promoter light, run 1, well a": 1.94e5, "control promoter light, run 1, well b": 2.29e5, "uninduced reporter light, run 1, well a": 14560, "outcome": "inactive"}
